# Results from the supplement of paper PMC4635364.
# Counter-ions that a name gives are not always drawn. The list shows a part of the results. This data set is noisy: repeats of one test often differ as much as different tests do.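 Human fetal ventral-midbrain neural progenitor line ReNCell VM, differentiated without mitogens. Images stained for doublecortin (early neurons) or tyrosine hydroxylase (dopaminergic neurons) were scored by blinded raters against untreated wells (0 = no change). Repeats and both raters were averaged, and compounds averaging 2 or higher were picked as hits for retesting.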
# Experiments:
# ReNCell VM [1] = test: neuronal differentiation score (DCX+ cell fraction vs untreated, manual image score) (score (-3 to 3)); higher = more neuronal differentiation; details: 2 uM, 2 weeks
# ReNCell VM [2] = test: dopaminergic neuron differentiation score (TH+ cell fraction vs untreated, manual image score) (score (0 to 3)); higher = more TH+ dopaminergic neuron differentiation; details: 2 uM, 4 weeks, BDNF 10 ng/ml + GDNF 10 ng/ml
smiles,measurement,setting,value
OCCOCCN1CCN(C2=Nc3ccccc3Sc3ccccc32)CC1 [Quetiapine],neuronal differentiation score,ReNCell VM [1]; library: Prestwick,inactive: 0
same,dopaminergic neuron differentiation score,ReNCell VM [2]; library: Prestwick,inactive: 0
N#CC(C#N)=C(N)/C(C#N)=C/c1ccc(O)cc1 [Tyrphostin AG 112],neuronal differentiation score,ReNCell VM [1]; library: LOPAC,inactive: 0
same,dopaminergic neuron differentiation score,ReNCell VM [2]; library: LOPAC,active: 3
CCC(=O)O[C@@H](O[P@](=O)(CCCCc1ccccc1)CC(=O)N1C[C@H](C2CCCCC2)C[C@H]1C(=O)O)C(C)C [Fosinopril],neuronal differentiation score,ReNCell VM [1]; library: Prestwick,inactive: 0
same,dopaminergic neuron differentiation score,ReNCell VM [2]; library: Prestwick,inactive: 0
Nc1nc(O)c2ncn(CCC(CO)CO)c2n1,neuronal differentiation score,ReNCell VM [1]; library: Spectrum,inactive: 0
same,dopaminergic neuron differentiation score,ReNCell VM [2]; library: Spectrum,inactive: 0
NC(=O)N1c2ccccc2C=Cc2ccccc21,neuronal differentiation score,ReNCell VM [1]; library: Spectrum,inactive: 0
same,dopaminergic neuron differentiation score,ReNCell VM [2]; library: Spectrum,inactive: 0
CN[C@@H]1[C@@H](O)[C@@H](O[C@@H]2[C@@H](O)[C@H](O[C@H]3OC(CN)=CC[C@H]3N)[C@@H](N)C[C@H]2N)OC[C@]1(C)O [Sisomicin sulfate],neuronal differentiation score,ReNCell VM [1]; library: Prestwick,inactive: 0
same,dopaminergic neuron differentiation score,ReNCell VM [2]; library: Prestwick,inactive: 0
"NC(C(=O)O)C(O)C(=O)O (stereo not drawn) [d,l-threo-3-HYDROXYASPARTIC ACID]",neuronal differentiation score,ReNCell VM [1]; library: Spectrum,inactive: 0
same,dopaminergic neuron differentiation score,ReNCell VM [2]; library: Spectrum,inactive: 0
CCN1CC(CCN2CCOCC2)C(c2ccccc2)(c2ccccc2)C1=O (configuration not stated),neuronal differentiation score,ReNCell VM [1]; library: Spectrum,inactive: 0
same,dopaminergic neuron differentiation score,ReNCell VM [2]; library: Spectrum,inactive: 0
O=C1c2ccccc2C(=O)C1c1ccccc1 [Phenindione],neuronal differentiation score,ReNCell VM [1]; library: Prestwick,inactive: 0
same,dopaminergic neuron differentiation score,ReNCell VM [2]; library: Prestwick,inactive: 0
CN(C)CCCn1cc(C2=C(c3c[nH]c4ccccc34)C(=O)NC2=O)c2ccccc21,neuronal differentiation score,ReNCell VM [1]; library: Tocriscreen,inactive: 0
same,dopaminergic neuron differentiation score,ReNCell VM [2]; library: Tocriscreen,inactive: 0
CCCCCCCCCCCCCCCCCC(=O)NCC(COP(=O)([O-])OCC[N+](C)(C)C)OCC (racemic) [rac-2-Ethoxy-3-octadecanamido-1-propylphosphocholine],neuronal differentiation score,ReNCell VM [1]; library: LOPAC,inactive: -3
same,dopaminergic neuron differentiation score,ReNCell VM [2]; library: LOPAC,inactive: 0

# Rewritten with tabs: part of the list above.
smiles	measurement	setting	value
CCC(=O)O[C@@H](O[P@](=O)(CCCCc1ccccc1)CC(=O)N1C[C@H](C2CCCCC2)C[C@H]1C(=O)O)C(C)C [Fosinopril]	neuronal differentiation score	ReNCell VM [1]; library: Prestwick	inactive: 0
CCCCCCCCCCCCCCCCCC(=O)NCC(COP(=O)([O-])OCC[N+](C)(C)C)OCC (racemic) [rac-2-Ethoxy-3-octadecanamido-1-propylphosphocholine]	dopaminergic neuron differentiation score	ReNCell VM [2]; library: LOPAC	inactive: 0
